Reference: paper PMC3382170
These are yes or no findings as the source states them, for the method shown. Binding seen in cells or lysates may run through a third protein. Some entries that bind do so weakly or less than the wild type.

Amino acid sequences for entries named in this document (tags omitted).
UniProt Q60749: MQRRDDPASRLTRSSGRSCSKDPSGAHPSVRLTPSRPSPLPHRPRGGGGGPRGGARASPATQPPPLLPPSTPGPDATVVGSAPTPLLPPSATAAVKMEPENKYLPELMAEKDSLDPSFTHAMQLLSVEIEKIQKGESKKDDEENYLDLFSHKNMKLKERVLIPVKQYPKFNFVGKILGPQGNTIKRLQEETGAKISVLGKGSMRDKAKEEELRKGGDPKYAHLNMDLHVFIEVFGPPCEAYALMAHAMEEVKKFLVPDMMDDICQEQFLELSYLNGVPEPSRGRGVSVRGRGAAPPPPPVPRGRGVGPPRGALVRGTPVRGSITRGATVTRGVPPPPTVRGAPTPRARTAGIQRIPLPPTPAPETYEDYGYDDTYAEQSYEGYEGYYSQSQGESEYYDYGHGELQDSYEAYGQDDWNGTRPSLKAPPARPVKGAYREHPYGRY
UniProt Q8R418: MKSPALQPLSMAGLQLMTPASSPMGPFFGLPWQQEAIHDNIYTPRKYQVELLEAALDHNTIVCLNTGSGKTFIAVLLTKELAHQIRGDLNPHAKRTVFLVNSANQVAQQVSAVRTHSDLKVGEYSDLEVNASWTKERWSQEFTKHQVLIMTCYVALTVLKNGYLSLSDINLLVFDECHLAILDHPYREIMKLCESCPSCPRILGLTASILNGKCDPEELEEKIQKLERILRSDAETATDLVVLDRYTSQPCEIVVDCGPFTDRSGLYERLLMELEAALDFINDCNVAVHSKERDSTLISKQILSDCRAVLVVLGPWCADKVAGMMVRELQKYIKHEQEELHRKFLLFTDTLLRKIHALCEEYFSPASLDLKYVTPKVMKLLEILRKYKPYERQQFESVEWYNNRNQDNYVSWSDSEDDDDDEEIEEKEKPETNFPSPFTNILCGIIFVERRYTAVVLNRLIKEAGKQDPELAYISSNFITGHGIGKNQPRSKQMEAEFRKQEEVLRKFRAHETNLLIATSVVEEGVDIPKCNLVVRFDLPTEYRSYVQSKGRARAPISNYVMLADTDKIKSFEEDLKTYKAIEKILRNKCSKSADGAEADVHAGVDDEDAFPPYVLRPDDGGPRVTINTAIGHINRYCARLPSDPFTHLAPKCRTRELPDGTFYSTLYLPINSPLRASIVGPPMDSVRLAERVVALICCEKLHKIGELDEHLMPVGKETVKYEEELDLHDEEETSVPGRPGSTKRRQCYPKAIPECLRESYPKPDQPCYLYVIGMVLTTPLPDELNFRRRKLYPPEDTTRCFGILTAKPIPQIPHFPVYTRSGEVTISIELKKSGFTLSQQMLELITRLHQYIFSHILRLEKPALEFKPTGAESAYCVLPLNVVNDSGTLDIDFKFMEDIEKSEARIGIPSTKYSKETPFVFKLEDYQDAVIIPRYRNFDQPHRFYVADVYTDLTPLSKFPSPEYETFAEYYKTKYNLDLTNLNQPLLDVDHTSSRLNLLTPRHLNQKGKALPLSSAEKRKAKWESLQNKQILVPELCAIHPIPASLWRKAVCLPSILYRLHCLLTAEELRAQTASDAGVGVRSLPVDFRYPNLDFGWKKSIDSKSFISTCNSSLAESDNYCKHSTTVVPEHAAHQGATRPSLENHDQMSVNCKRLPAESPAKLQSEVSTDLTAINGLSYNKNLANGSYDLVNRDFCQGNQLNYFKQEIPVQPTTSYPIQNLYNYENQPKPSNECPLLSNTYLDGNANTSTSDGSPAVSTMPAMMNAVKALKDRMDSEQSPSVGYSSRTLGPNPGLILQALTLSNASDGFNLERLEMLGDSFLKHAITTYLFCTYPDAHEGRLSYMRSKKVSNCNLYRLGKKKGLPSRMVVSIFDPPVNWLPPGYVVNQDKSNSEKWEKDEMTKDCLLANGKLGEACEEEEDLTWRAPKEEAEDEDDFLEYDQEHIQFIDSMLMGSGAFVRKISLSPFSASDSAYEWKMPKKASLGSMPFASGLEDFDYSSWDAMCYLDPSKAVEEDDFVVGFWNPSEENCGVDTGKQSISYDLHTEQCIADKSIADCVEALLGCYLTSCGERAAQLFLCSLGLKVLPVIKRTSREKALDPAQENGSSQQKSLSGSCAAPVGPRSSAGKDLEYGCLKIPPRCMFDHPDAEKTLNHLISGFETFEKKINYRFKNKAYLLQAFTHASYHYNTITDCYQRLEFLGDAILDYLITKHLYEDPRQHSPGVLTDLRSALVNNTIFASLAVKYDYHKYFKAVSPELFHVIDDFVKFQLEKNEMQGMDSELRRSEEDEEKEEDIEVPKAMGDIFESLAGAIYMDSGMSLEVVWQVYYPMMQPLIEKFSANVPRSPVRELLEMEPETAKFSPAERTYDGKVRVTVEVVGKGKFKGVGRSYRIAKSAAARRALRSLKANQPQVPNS

Key:
[1] = target: SAM68 (mouse (endogenous in male germ cells)) (UniProt Q60749); assay: co-IP; co-immunoprecipitation performed in the presence of RNase in the germ cell extract; Western blot; precipitating antibody not told
[2] = target: SAM68 (mouse (endogenous in male germ cells)) (UniProt Q60749); assay: co-IP; extracts of a mouse germ cell fraction enriched in secondary spermatocytes; rabbit anti-SAM68, anti-DROSHA or control IgGs (5 ug), protein A-Sepharose, 3 h at 4°C; 100 mM NaCl, 10 mM MgCl2, 30 mM Tris-HCl pH 7.4, 1 mM DTT, 0.5% Triton X-100; Western blot
[3] = target: T1, DROSHA (mouse (endogenous in male germ cells)) (UniProt Q5HZJ0); assay: co-IP; co-immunoprecipitation performed in the presence of RNase in the germ cell extract; Western blot; precipitating antibody not told
T1 sequence: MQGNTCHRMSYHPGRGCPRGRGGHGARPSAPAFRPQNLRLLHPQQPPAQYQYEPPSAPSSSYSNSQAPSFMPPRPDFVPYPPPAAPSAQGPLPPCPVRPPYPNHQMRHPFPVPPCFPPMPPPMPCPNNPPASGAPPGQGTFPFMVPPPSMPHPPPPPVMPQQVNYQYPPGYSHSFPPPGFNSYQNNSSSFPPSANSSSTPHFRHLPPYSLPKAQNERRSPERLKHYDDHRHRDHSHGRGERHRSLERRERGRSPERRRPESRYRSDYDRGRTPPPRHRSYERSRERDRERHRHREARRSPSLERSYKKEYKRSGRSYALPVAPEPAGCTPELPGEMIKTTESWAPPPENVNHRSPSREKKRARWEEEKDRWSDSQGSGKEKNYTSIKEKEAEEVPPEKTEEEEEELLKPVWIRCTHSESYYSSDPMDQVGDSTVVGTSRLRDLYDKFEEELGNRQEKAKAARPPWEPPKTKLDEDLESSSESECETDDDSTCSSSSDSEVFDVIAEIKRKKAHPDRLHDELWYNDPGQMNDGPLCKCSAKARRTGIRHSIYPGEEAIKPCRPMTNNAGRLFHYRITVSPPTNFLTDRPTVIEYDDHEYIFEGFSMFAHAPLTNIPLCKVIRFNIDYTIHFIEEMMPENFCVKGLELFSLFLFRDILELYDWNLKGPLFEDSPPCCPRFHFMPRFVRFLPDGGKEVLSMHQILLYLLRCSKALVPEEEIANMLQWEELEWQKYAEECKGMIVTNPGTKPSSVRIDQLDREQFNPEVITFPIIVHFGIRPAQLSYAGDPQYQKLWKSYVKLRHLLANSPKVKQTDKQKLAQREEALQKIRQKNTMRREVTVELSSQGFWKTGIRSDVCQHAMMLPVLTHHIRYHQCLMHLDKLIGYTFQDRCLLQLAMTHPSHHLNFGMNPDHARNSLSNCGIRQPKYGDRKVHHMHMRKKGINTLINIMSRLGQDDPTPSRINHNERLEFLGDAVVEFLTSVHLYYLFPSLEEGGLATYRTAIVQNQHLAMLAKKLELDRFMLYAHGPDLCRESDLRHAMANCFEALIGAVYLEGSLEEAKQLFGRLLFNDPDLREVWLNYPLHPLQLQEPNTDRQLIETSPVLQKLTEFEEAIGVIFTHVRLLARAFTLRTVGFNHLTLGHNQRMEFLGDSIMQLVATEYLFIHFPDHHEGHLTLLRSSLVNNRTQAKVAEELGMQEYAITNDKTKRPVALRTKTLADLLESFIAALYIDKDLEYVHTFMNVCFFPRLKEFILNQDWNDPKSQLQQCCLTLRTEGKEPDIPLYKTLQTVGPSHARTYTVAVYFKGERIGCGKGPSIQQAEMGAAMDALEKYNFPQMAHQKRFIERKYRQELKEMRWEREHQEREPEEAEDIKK

[4] = target: T1, DROSHA (mouse (endogenous in male germ cells)); assay: co-IP; extracts of a mouse germ cell fraction enriched in secondary spermatocytes; rabbit anti-SAM68, anti-DROSHA or control IgGs (5 ug), protein A-Sepharose, 3 h at 4°C; 100 mM NaCl, 10 mM MgCl2, 30 mM Tris-HCl pH 7.4, 1 mM DTT, 0.5% Triton X-100; Western blot
[5] = target: SAM68 (mouse (endogenous in male germ cells)) (UniProt Q60749); assay: condition: only in extracts of primary spermatocytes and of round spermatids; co-IP; extracts of mouse primary spermatocytes and of round spermatids; anti-SAM68 antibody, protein A-Sepharose; Western blot with anti-MVH
[6] = target: SAM68 (mouse (endogenous in male germ cells)) (UniProt Q60749); assay: co-IP; extracts of a mouse germ cell fraction enriched in secondary spermatocytes; rabbit anti-SAM68, anti-DROSHA or control IgGs (5 ug), protein A-Sepharose, 3 h at 4°C; 100 mM NaCl, 10 mM MgCl2, 30 mM Tris-HCl pH 7.4, 1 mM DTT, 0.5% Triton X-100; Western blot; remark: listed apart in the source

DICER (from UniProt Q8R418 1-1916) (enzyme)
binding [1]: binds
binding [2]: binds

SAM68 (from UniProt Q60749 1-443)
binding [3]: binds
binding [4]: binds

B1: MVH (Mouse VASA Homologue) (protein, UniProt Q61496 1-702)
chain: MGDEDWEAEILKPHVSSYVPVFEKDKYSSGANGDTFNRTSASSDIGESSKKENTSTTGGFGRGKGFGNRGFLNNKFEEGDSSGFWKESNNDCEDNQTRSRGFSKRGGCQDGNDSEASGPFRRGGRGSFRGCRGGFGLGRPNSESDQDQGTQRGGGLFGSRKPAASDSGNGDTYQSRSGSGRGGYKGLNEEVVTGSGKNSWKSETEGGESSDSQGPKVTYIPPPPPEDEDSIFAHYQTGINFDKYDTILVEVSGHDAPPAILTFEEANLCQTLNNNIAKAGYTKLTPVQKYSIPIVLAGRDLMACAQTGSGKTAAFLLPILAHMMRDGITASRFKELQEPECIIVAPTRELINQIYLEARKFSFGTCVRAVVIYGGTQFGHSVRQIVQGCNILCATPGRLMDIIGKEKIGLKQVKYLVLDEADRMLDMGFGPEMKKLISCPGMPSKEQRQTLLFSATFPEEIQRLAGDFLKSSYLFVAVGQVGGACRDVQQTILQVGQYSKREKLVEILRNIGDERTMVFVETKKKADFIATFLCQEKISTTSIHGDREQREREQALGDFRCGKCPVLVATSVAARGLDIENVQHVINFDLPSTIDEYVHRIGRTGRCGNTGRAISFFDTDSDNHLAQPLVKVLSDAQQDVPAWLEEIAFSTYVPPSFSSSTRGGAVFASVDTRKNYQGKHTLNTAGISSSQAPNPVDDESWD
binding [5]: no binding
binding [6]: binds
